# Laboratory results reported in patent publication US20090170765A1.
# No constants are given. Whether binding was seen depends on the method and setting. In cells and extracts the contact can be indirect. Some binding calls cover weakened binding; strength is not graded here.
# What was measured:
# importin β1 [1] = target: importin β1 (UniProt Q14974); assay: co-immunoprecipitation from transfected HeLa cells, GFP antibody, detection with importin β1 antibody
# importin β1 [2] = target: importin β1 (UniProt Q14974); assay: co-immunoprecipitation from transfected HeLa cells
substance,measurement,setting,value
GFP-NLS fusion protein (GFP fused to the CnAβ 171-190 fragment) (from UniProt P16298 171-190),binding,importin β1 [1],binds
"GFP-tagged full length calcineurin Aβ (CnAβ(full), amino acids 1-524) (from UniProt P16298 1-524) (enzyme)",binding,importin β1 [2],binds
same,binding,importin β1 [1],binds
